# Measured values taken from PubChem BioAssay AID330 (DTP/NCI, 2004).
# The list is a part of this screen's results and no random one: it gathers tests that were run many times, whatever their T/C, doses with no T/C, and many T/C values between a quarter and a half above the control. Other doses and runs of a compound stand elsewhere. T/C is the treated group as % of the vehicle group. Some entries give survivors of the animals treated and no T/C: the source holds a T/C of zero for them, seemingly a mark for toxic or unscored doses. Some doses without a T/C left all or most animals alive at the check, yet need not have been tolerated: survival well below the control is almost never listed, so the zero probably covers shortened survival too. Counts of survivors are from the toxicity check (mostly the fifth day) where no day follows; animals may have died later. Schedule codes are those of the source, taken here to give the interval after Q, in days (D) or hours (H), and the number of doses after X. Some entries hold several experiments; the values are given in rising order. Where survival is the endpoint, this PubChem deposit counts one and a half times the control or more as active, and values a quarter to a half above the control carry no call in these data; other NCI protocols may use other cut-offs. Brackets with × say how often a value occurs here. Some T/C values carry the count of animals alive at the toxicity check (mostly the fifth day); without a count, all were alive then.
# System: P388 leukemia ip, CD2F1 mice, survival T/C
# Assay: NCI In Vivo Anticancer Drug Screen. Data for tumor model P388 Leukemia (intraperitoneal) in CD2F1 (CDF1) mice
# Conditions: T/C endpoint: median survival time, higher T/C = longer survival
# [1] = dose: 100.0 mg/kg/injection, schedule: Q01DX009 (ip), vehicle: saline with Tween-80
# [2] = dose: 200.0 mg/kg/injection, schedule: Q01DX009 (ip), vehicle: saline with Tween-80
# [3] = dose: 100.0 mg/kg/injection, schedule: Q01DX009 (ip), vehicle: Klucel (hydroxypropylcellulose) (HPC)
# [4] = dose: 100.0 mg/kg/injection, schedule: Q01DX005 (ip), vehicle: Klucel (hydroxypropylcellulose) (HPC)
# [5] = dose: 200.0 mg/kg/injection, schedule: Q01DX005 (ip), vehicle: Klucel (hydroxypropylcellulose) (HPC)
# [6] = dose: 50.0 mg/kg/injection, schedule: Q01DX009 (ip), vehicle: saline
# [7] = dose: 120.0 mg/kg/injection, schedule: Q01DX005 (ip), vehicle: saline with Tween-80
# [8] = dose: 100.0 mg/kg/injection, schedule: Q01DX005 (ip), vehicle: saline with Tween-80
structure (smiles),measurement,setting,value
CN(C)CCN1C(=O)c2cccc3cc(N)cc(c23)C1=O,T/C,"dose: 2.0 mg/kg/injection, schedule: Q01DX009 (ip), vehicle: saline with Tween-80",135 % of control
same,T/C,"dose: 4.0 mg/kg/injection, schedule: Q01DX009 (ip), vehicle: saline with Tween-80",137 and 142 % of control [5 of 6 alive]
same,T/C,"dose: 7.0 mg/kg/injection, schedule: Q01DX009 (ip), vehicle: saline with Tween-80, evaluated on day 30",131 and 134 % of control
same,T/C,"dose: 7.0 mg/kg/injection, schedule: Q01DX009 (ip), vehicle: saline with Tween-80, evaluated on day 45","131, 141, 144, 152 % of control"
same,T/C,"dose: 7.0 mg/kg/injection, schedule: Q01DX009 (ip), vehicle: saline with Tween-80, evaluated on day 60","128, 130, 131, 139, 141, 144 % of control"
same,T/C,"dose: 8.0 mg/kg/injection, schedule: Q01DX009 (ip), vehicle: saline with Tween-80",144 and 149 % of control [9 of 10 alive]
same,T/C,"dose: 11.0 mg/kg/injection, schedule: Q01DX009 (ip), vehicle: saline with Tween-80, evaluated on day 30",151 (2×) and 157 % of control
same,T/C,"dose: 11.0 mg/kg/injection, schedule: Q01DX009 (ip), vehicle: saline with Tween-80, evaluated on day 45","146, 163, 166, 177 % of control"
same,T/C,"dose: 11.0 mg/kg/injection, schedule: Q01DX009 (ip), vehicle: saline with Tween-80, evaluated on day 60","143, 145 (2×), 152, 161, 176 % of control"
same,T/C,"dose: 16.0 mg/kg/injection, schedule: Q01DX009 (ip), vehicle: saline with Tween-80, evaluated on day 30","132, 177, 183, 186, 188, 199 % of control"
same,T/C,"dose: 16.0 mg/kg/injection, schedule: Q01DX009 (ip), vehicle: saline with Tween-80, evaluated on day 45","186, 209, 211, 214 % of control"
same,T/C,"dose: 16.0 mg/kg/injection, schedule: Q01DX009 (ip), vehicle: saline with Tween-80, evaluated on day 60","171, 177, 181, 194, 195, 200 % of control"
same,T/C,"dose: 24.0 mg/kg/injection, schedule: Q01DX009 (ip), vehicle: saline with Tween-80, evaluated on day 30","114, 128, 242 % of control"
same,T/C,"dose: 24.0 mg/kg/injection, schedule: Q01DX009 (ip), vehicle: saline with Tween-80, evaluated on day 45","89 [9 of 10 alive], 102, 115, 118 % of control"
same,T/C,"dose: 24.0 mg/kg/injection, schedule: Q01DX009 (ip), vehicle: saline with Tween-80, evaluated on day 60","118, 147, 224, 226, 235, 247 % of control"
same,survivor count,"dose: 32.0 mg/kg/injection, schedule: Q01DX009 (ip), vehicle: saline with Tween-80",10 of 10
same,survivor count,"dose: 32.1 mg/kg/injection, schedule: Q01DX009 (ip), vehicle: saline with Tween-80",5 of 6 and 6 of 6
same,survivor count,"dose: 65.0 mg/kg/injection, schedule: Q01DX009 (ip), vehicle: saline with Tween-80",6 of 6
CCOC1OCN(c2ccc(Cl)cc2)CC1(C)C (configuration not stated),T/C,[1],133 % of control
same,T/C,[2],136 % of control
Cc1cc(NCCCN(C)C)c2c(ccc3c(NCCCN(C)C)cc(C)nc32)n1,survivor count,"dose: 48.0 mg/kg/injection, schedule: Q01DX009 (ip), vehicle: saline with Tween-80",1 of 6
same,survivor count,"dose: 96.0 mg/kg/injection, schedule: Q01DX009 (ip), vehicle: saline with Tween-80",0 of 6
Nc1ccc2c(NCCCCCCNc3c4ccccc4nc4cc(N)ccc34)c3ccccc3nc2c1,T/C,"dose: 1.25 mg/kg/injection, schedule: Q01DX009 (ip), vehicle: other",142 % of control
same,T/C,"dose: 2.5 mg/kg/injection, schedule: Q01DX009 (ip), vehicle: other",139 % of control
same,T/C,"dose: 5.0 mg/kg/injection, schedule: Q01DX009 (ip), vehicle: other",145 % of control
same,T/C,"dose: 10.0 mg/kg/injection, schedule: Q01DX009 (ip), vehicle: other",147 % of control
same,T/C,"dose: 20.0 mg/kg/injection, schedule: Q01DX009 (ip), vehicle: other",145 % of control
CCC1CN2CCc3cc(OC)c(OC)cc3C2CC1CCCl (configuration not stated),survivor count,[3],2 of 6
same,survivor count,"dose: 200.0 mg/kg/injection, schedule: Q01DX009 (ip), vehicle: Klucel (hydroxypropylcellulose) (HPC)",0 of 6
CC(C)(c1ccccc1)[N+](C)(C)C,survivor count,"dose: 40.0 mg/kg/injection, schedule: Q04DX003 (ip), vehicle: saline",1 of 6
CC(Br)(C(Br)c1ccccc1)[N+](=O)[O-] (configuration not stated),survivor count,[3],4 of 6
CNC1C(O)C(OC2C(N)CC(N)C(OC3OC(CN)=CCC3N)C2O)OCC1(C)O (configuration not stated),survivor count,"dose: 250.0 mg/kg/injection, schedule: Q01DX009 (ip), vehicle: saline",3 of 6
CCC(C)C1NC(=O)C(NC(=O)c2c3nc4c(C(=O)NC5C(=O)NC(C(C)CC)C(=O)N6CCCC6C(=O)N(C)CC(=O)N(C)C(C(C)C)C(=O)OC5C)cc([N+](=O)[O-])c(C)c4oc-3c(C)c(=O)c2N)C(C)OC(=O)C(C(C)C)N(C)C(=O)CN(C)C(=O)C2CCCN2C1=O (configuration not stated),T/C,"dose: 0.1 mg/kg/injection, schedule: Q01DX009 (ip), vehicle: Klucel (hydroxypropylcellulose) (HPC)",148 % of control
same,T/C,"dose: 0.18 mg/kg/injection, schedule: Q01DX009 (ip), vehicle: water",139 % of control
same,T/C,"dose: 0.27 mg/kg/injection, schedule: Q01DX009 (ip), vehicle: water",147 % of control
same,survivor count,"dose: 0.9 mg/kg/injection, schedule: Q01DX009 (ip), vehicle: water",6 of 6
same,survivor count,"dose: 1.6 mg/kg/injection, schedule: Q01DX009 (ip), vehicle: Klucel (hydroxypropylcellulose) (HPC)",6 of 6
Cc1cc(=Nc2ccc3c(c2)c(N)cc(C)[n+]3C)nc(N)n1C,survivor count,"dose: 50.0 mg/kg/injection, schedule: Q01DX005 (ip), vehicle: Klucel (hydroxypropylcellulose) (HPC)",4 of 6
same,survivor count,[4],0 of 6
same,survivor count,[5],0 of 6
O=C1C(Cl)=C(Nc2ccc3c(c2NC2=C(Cl)C(=O)c4ccccc4C2=O)C(=O)c2ccccc2C3=O)C(=O)c2ccccc21,survivor count,[5],3 of 5
Cc1ccc(S(=O)(=O)OCC(O)C(O)COS(=O)(=O)c2ccc(C)cc2)cc1 (configuration not stated),survivor count,[6],6 of 6
COc1ccc(/C=C/C(=O)OC2CC34CCNC35CC(OC5(OC)C2OC)c2ccc(OC)c(O)c24)cc1O (configuration not stated),survivor count,[4],0 of 6
CCN(CC)CCCC(C)Nc1cc(C)nc2ccc(N(C)C)cc12 (configuration not stated),survivor count,[7],0 of 6
same,survivor count,"dose: 240.0 mg/kg/injection, schedule: Q01DX005 (ip), vehicle: saline with Tween-80",0 of 6
COC(=O)c1ccc(C(=O)OC)c2nc3cc([N+](=O)[O-])ccc3nc12,survivor count,"dose: 240.0 mg/kg/injection, schedule: Q01DX005 (ip), vehicle: suspension in saline",3 of 6
O=C(Cc1nc2ccccc2nc1CC(=O)c1ccncc1)c1ccncc1,survivor count,"dose: 25.0 mg/kg/injection, schedule: Q01DX005 (ip), vehicle: saline with Tween-80",6 of 6
same,survivor count,"dose: 50.0 mg/kg/injection, schedule: Q01DX005 (ip), vehicle: saline with Tween-80",6 of 6
same,survivor count,[8],6 of 6
same,survivor count,[7],6 of 6
N#CC(C#N)=C/C=C/c1cccc([N+](=O)[O-])c1,T/C,"dose: 12.5 mg/kg/injection, schedule: Q01DX009 (ip), vehicle: Klucel (hydroxypropylcellulose) (HPC)",127 and 128 % of control
same,T/C,"dose: 18.0 mg/kg/injection, schedule: Q01DX009 (ip), vehicle: Klucel (hydroxypropylcellulose) (HPC)",132 % of control
same,survivor count,"dose: 50.0 mg/kg/injection, schedule: Q01DX009 (ip), vehicle: Klucel (hydroxypropylcellulose) (HPC)",2 of 6
CC(=O)NC(Cc1cccc(F)c1)C(=O)O (configuration not stated),survivor count,"dose: 12.5 mg/kg/injection, schedule: Q01DX009 (ip), vehicle: saline",1 of 6
same,survivor count,"dose: 25.0 mg/kg/injection, schedule: Q01DX009 (ip), vehicle: saline",0 of 6
CC1(C)N=C(N)N=C(N)N1c1ccc(S(C)(=O)=O)cc1,survivor count,[8],4 of 5
same,survivor count,"dose: 200.0 mg/kg/injection, schedule: Q01DX005 (ip), vehicle: saline with Tween-80",0 of 5
CCOc1ccc2nc3cc(N=Nc4ccc5c(N)c6cc(OCC)ccc6nc5c4)ccc3c(N)c2c1,T/C,"dose: 50.0 mg/kg/injection, schedule: Q01DX009 (ip), vehicle: saline with Tween-80",128 % of control
same,T/C,[1],135 % of control
same,T/C,[2],129 % of control (2×)
CC(C)(C)N=C(Cc1ccccc1)N1CCCCC1,survivor count,[2],1 of 6
CCC(=O)NC(Cc1ccsc1)C(=O)O (configuration not stated),survivor count,[6],6 of 6
